In test [1] the target is huGPC(aa359-420) (HSV; human). The experiment in a line: FACS on 293 cells expressing the construct.
The target in test [2] is full-length N-terminal gD-tagged cynomolgus monkey GPC3 expressed on the surface of 293 cells (cynomolgus monkey). The experiment in a line: FACS on 293 cells expressing gD-tagged cynomolgus GPC3.
The target is the same in test [3]. The experiment in a line: FACS on 293 cells expressing gD-tagged full-length GPC3.
The target of test [4] is full-length N-terminal gD-tagged rat GPC3 expressed on the surface of 293 cells (rat) (UniProt P13265). The description is as above.
In test [5] the target is huGPC(aa359-420) (HSV; human). Briefly: FACS on 293 cells expressing the gD-tagged fragment.
Test [6] addresses full-length N-terminal gD-tagged rat GPC3 expressed on the surface of 293 cells (rat) (UniProt P13265). Briefly: FACS on 293 cells expressing gD-tagged rat GPC3.
In test [7] the target is human GPC3, full length, on the surface of cells (human) (UniProt P51654). Briefly: FACS on JHH7 cells (endogenous GPC3).
Test [8] shares this target. Briefly: FACS on HepG2 X1 cells (endogenous GPC3).
Test [9] shares this target. The experiment in a line: FACS on HepG2 X1 and 293S-GPC3 cells.
Test [10] shares this target. Briefly: FACS (FIG. 13A-B).
Test [11] shares this target. The experiment in a line: FACS on JHH7 cells and xenograft tumor cells.
Test [12] shares this target. The experiment in a line: FACS on cells isolated from a JHH7 xenograft tumor (endogenous GPC3).
Test [13] shares this target. The experiment in a line: FACS on HepG2 X1 cells and xenograft tumor cells.
Test [14] concerns the target cynomolgus monkey GPC3 (Western blot) (cynomolgus monkey). Briefly: Western blot.
For test [15], the target named is mouse GPC3 (Western blot) (mouse) (UniProt Q8CFZ4). Briefly: Western blot.
In test [16] the target is rat GPC3 (Western blot) (rat) (UniProt P13265). Briefly: Western blot.
Test [17] deals with human GPC3 (Western blot) (human) (UniProt P51654). Briefly: Western blot.
Test [18] deals with human GPC3, full length, on the surface of cells (human) (UniProt P51654). Briefly: FACS (FIG. 15A-B).
The target is the same in test [19]. The experiment in a line: FACS, 7H1 on HepG2 X1 cells (endogenous GPC3) and on 293S cells expressing full-length GPC3.
For test [20] the target is unchanged. The experiment in a line: IHC on tissue microarray and GPC3-expressing cells.
For test [21], the target named is cynomolgus monkey GPC3 (Western blot) (cynomolgus monkey). The experiment in a line: Western blot (told again, 'as discussed above').
Test [22] has as its target mouse GPC3 (Western blot) (mouse) (UniProt Q8CFZ4). The experiment in a line: Western blot (told again, 'as discussed above').
In test [23] the target is rat GPC3 (Western blot) (rat) (UniProt P13265). The experiment in a line: Western blot (told again, 'as discussed above').
Test [24] has as its target human GPC3 (Western blot) (human) (UniProt P51654). The experiment in a line: Western blot (told again, 'as discussed above').
The target of test [25] is human GPC3, full length, on the surface of cells (human) (UniProt P51654). Briefly: FACS on cells isolated from a HepG2 X1 xenograft tumor (endogenous GPC3).

Protein sequences, listed by entry. Tags and fused reporters are not part of them. Lines headed by an entry give the natural chain unless they say otherwise; changes in a name come on top.
UniProt P13265: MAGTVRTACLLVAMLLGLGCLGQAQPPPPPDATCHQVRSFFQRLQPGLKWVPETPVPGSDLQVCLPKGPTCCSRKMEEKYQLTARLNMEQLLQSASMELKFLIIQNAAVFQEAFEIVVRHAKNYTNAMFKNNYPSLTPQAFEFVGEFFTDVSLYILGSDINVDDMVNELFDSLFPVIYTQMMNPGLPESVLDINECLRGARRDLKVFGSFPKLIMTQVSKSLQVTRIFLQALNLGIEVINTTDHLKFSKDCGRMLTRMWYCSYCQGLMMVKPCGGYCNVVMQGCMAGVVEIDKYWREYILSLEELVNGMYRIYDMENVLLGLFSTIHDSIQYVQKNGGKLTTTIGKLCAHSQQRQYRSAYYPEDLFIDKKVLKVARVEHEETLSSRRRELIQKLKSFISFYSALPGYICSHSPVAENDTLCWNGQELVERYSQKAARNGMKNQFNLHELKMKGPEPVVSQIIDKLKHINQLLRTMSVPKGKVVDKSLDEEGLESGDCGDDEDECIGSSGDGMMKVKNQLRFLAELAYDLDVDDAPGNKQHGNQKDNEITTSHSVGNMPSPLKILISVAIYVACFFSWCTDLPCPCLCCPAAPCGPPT
UniProt P51654: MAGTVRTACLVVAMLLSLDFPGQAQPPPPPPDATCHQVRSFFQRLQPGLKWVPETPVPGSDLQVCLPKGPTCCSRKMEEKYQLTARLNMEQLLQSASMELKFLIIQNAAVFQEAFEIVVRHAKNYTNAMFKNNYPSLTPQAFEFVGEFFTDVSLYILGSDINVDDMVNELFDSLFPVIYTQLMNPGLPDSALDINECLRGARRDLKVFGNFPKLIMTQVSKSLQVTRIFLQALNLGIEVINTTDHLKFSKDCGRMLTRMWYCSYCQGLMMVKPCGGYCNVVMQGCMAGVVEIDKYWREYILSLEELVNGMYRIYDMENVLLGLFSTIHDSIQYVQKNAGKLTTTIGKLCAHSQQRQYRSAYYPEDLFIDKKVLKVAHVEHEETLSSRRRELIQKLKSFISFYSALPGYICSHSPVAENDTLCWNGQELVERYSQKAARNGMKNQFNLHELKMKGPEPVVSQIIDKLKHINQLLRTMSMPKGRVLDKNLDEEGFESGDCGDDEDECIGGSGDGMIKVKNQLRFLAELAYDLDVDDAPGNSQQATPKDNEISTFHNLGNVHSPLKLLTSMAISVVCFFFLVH
UniProt Q8CFZ4: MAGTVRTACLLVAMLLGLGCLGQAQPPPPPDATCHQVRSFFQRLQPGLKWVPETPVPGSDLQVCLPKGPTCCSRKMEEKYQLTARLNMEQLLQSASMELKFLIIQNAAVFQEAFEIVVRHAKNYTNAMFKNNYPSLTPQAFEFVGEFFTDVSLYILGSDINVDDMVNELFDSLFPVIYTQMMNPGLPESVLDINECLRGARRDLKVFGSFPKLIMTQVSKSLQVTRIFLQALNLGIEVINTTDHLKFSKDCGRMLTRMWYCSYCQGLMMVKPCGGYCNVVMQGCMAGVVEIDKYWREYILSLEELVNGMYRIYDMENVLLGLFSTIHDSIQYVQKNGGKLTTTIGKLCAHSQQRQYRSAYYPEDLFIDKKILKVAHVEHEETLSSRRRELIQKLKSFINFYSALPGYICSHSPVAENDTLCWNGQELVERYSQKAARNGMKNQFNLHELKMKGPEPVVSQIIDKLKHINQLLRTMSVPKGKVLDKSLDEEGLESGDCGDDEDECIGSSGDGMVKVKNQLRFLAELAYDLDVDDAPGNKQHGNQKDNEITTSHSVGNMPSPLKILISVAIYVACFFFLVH

Results are given in words; binding and its absence hold for the method and conditions named. Some binding calls cover weakened binding; strength is not graded here.

B1: antibody 15G1 (antibody, human IgG1, kappa, V domains shown)
VH: EVQLLETGGGLVQPGGSRGLSCEGSGFTFSGFWMSWVRQTPGKTLEWIGDINSDGSSINYAPSIKDRFTIFRDNDKSILYLQMTNVRSEDTGTYFCVTTYGDYWGQGTTLTVSS
VL: DIVMTQSQKFMSTSVGDRVSVTCKASQNVGSHVGWYQQKSGQSPKALIYSASNRYIGVPDRFTGSGSGTDFTLTISNVQSEDLAEYFCQQYHIYPYTFGGGTRLEIKR
With B1, the binding result in [1] is “no binding”; in [2], “binds”; in test [3], “binds”; in test [4], “binds”; in test [5] it was “no binding”; in test [6], “binds”.

B2: antibody 7H1 (antibody, V domains shown)
VH: QVQLQQSGPELVKPGASVKISCKASGYTFTDYYINWVKQKPGQGLEWIGWIYPGSGHTECNETFKGKATLTVDTSSSTAYMQLSSLTSEDTAVYFCTRGYYAPMGYFDYWGQGTTLTVSS
VL: DIQMTQSPSSLSASLGERVSLTCRASQEISGYLSWLQQKPDGTIKRLIYAASTLDSGVPKRFSGSRSGSDYSLTISGLESEDFADYYCLQYASYPYTFGGGTKLEIK
Turning to B2, the binding result in test [7], in test [8], in test [9], in test [10], in test [11] and in test [12] was “binds” each time. Also, the binding entry in test [13], in test [14], in test [15], in test [16], in test [17] and in test [18] was “binds” in each case. Besides, the binding entry in [19], in [20], in test [21], in test [22], in [23] and in test [24] was “binds” each time. Moreover, in [25], the binding result was “binds”.

The values above are taken from patent publication US20160017049A1.
